# Experimental data as given in PubChem BioAssay AID330 (DTP/NCI, 2004).
# The list shows only some results of the screen, not a fair sample: it gathers tests that were run many times, whatever their T/C, doses with no T/C, and many T/C values between a quarter and a half above the control. Other doses and runs of a compound stand elsewhere. T/C gives the treated animals as a percentage of the vehicle group. Some doses have a count of surviving animals in place of a T/C: the source holds a T/C of zero for them, seemingly a mark for toxic or unscored doses. Some survivor counts are full or nearly so, which does not show that the dose was tolerated: survival well below the control is almost never listed, so the zero probably covers shortened survival too. Counts of survivors are from the toxicity check (mostly the fifth day) where no day follows; animals may have died later. Schedule codes are those of the source, read here as Q, the interval in days (D) or hours (H), X, the number of doses. Some structures stand for samples that the source files as different forms (salt, stereo form or complex); doses refer to the form tested. For survival time, this PubChem deposit counts one and a half times the control or more as active, and values a quarter to a half above the control carry no call in these data; other NCI protocols may use other cut-offs.
# System: P388 leukemia ip, CD2F1 mice, survival T/C
# Test: NCI In Vivo Anticancer Drug Screen. Data for tumor model P388 Leukemia (intraperitoneal) in CD2F1 (CDF1) mice
# Conditions: T/C endpoint: median survival time, higher T/C = longer survival
# [1] = dose: 200.0 mg/kg/injection, schedule: Q01DX009 (ip), vehicle: saline with Tween-80
# [2] = dose: 200.0 mg/kg/injection, schedule: Q01DX005 (ip), vehicle: Klucel (hydroxypropylcellulose) (HPC)
# [3] = dose: 400.0 mg/kg/injection, schedule: Q04DX003 (ip), vehicle: Klucel (hydroxypropylcellulose) (HPC)
compound,measurement,setting,value
NC(=O)CCBr,survivor count,[1],6 of 6
CCCCCCCCCCCCCCCCSc1ccc(N=Cc2ccc(N(CC)CC#N)cc2)cc1,survivor count,[1],6 of 6
C=C1C(=O)OC2CC(C)/C=C\C(=O)C(C)(O)C(O)C(O)C12 (configuration not stated) (tested in a mixture with another compound),survivor count,"dose: 50.0 mg/kg/injection, schedule: Q01DX001 (ip), vehicle: Klucel (hydroxypropylcellulose) (HPC)",0 of 6
CCOc1c(OC)cc(C2c3cc4c(c(OCC)c3CC3COC(=O)C32)OCO4)cc1OC (configuration not stated),survivor count,"dose: 50.0 mg/kg/injection, schedule: Q01DX005 (ip), vehicle: Klucel (hydroxypropylcellulose) (HPC)",6 of 6
same,survivor count,[2],6 of 6
O=c1[nH]c2c([N+](=O)[O-])cc(Cl)cc2nc1/C=C(\O)c1ccc(Cl)cc1,survivor count,"dose: 60.0 mg/kg/injection, schedule: Q01DX005 (ip), vehicle: Klucel (hydroxypropylcellulose) (HPC)",5 of 6
O=NN(CCF)C(=O)NC12CC3CC(CC(C3)C1)C2,survivor count,"dose: 200.0 mg/kg/injection, schedule: Q04DX003 (ip), vehicle: Klucel (hydroxypropylcellulose) (HPC)",2 of 6
same,survivor count,[3],0 of 6
CC(C)(C)SC(=O)c1ccco1,survivor count,[1],4 of 6
CN(C)CCNc1ccc(NCCN(C)C)c2c1C(=O)c1ccccc1C2=O,T/C,"dose: 5.0 mg/kg/injection, schedule: Q01DX009 (ip), vehicle: acid diluted with saline",133 % of control
same,T/C,"dose: 10.0 mg/kg/injection, schedule: Q01DX009 (ip), vehicle: acid diluted with saline",149 % of control
same,T/C,"dose: 10.0 mg/kg/injection, schedule: Q01DX009 (ip), vehicle: distilled water + Tween-80",133 % of control
same,survivor count,"dose: 80.0 mg/kg/injection, schedule: Q01DX009 (ip), vehicle: acid diluted with saline",4 of 6
COc1ccc2c(c1O)C13CCN(C)[C@@H](C2)C12CC2/C(=N/O)[C@H]3OC(C)=O (some centres not stated),survivor count,[2],2 of 6
O=C(O)c1ccc2c3c(n[se]c13)-c1ccccc1C2=O,survivor count,[2],0 of 5
C[C@H](CCC(=O)O)[C@H]1CC[C@H]2[C@@H]3[C@H](O)C[C@@H]4C[C@H](O)CC[C@]4(C)[C@H]3C[C@H](O)[C@]12C (tested in a mixture with another compound),T/C,"dose: 150.0 mg/kg/injection, schedule: Q01DX009 (ip), vehicle: saline sonified",131 % of control
OCCc1nccnn1,survivor count,"dose: 100.0 mg/kg/injection, schedule: Q04DX003 (ip), vehicle: saline",6 of 6
CCC(c1ccc(O)cc1)C(CC)c1ccc(O)c(CN(C)C)c1 (configuration not stated),survivor count,"dose: 60.0 mg/kg/injection, schedule: Q01DX005 (ip), vehicle: saline with Tween-80",5 of 6
same,survivor count,"dose: 240.0 mg/kg/injection, schedule: Q01DX005 (ip), vehicle: saline with Tween-80",0 of 6
C[N+](C)(C)CCOS(C)(=O)=O,survivor count,"dose: 3.13 mg/kg/injection, schedule: Q01DX009 (ip), vehicle: Klucel (hydroxypropylcellulose) (HPC)",6 of 6
same,survivor count,"dose: 6.25 mg/kg/injection, schedule: Q01DX009 (ip), vehicle: saline",1 of 6
same,survivor count,"dose: 12.5 mg/kg/injection, schedule: Q01DX009 (ip), vehicle: Klucel (hydroxypropylcellulose) (HPC)",6 of 6
same,survivor count,"dose: 12.5 mg/kg/injection, schedule: Q01DX009 (ip), vehicle: saline",3 of 6
same,survivor count,"dose: 25.0 mg/kg/injection, schedule: Q01DX009 (ip), vehicle: Klucel (hydroxypropylcellulose) (HPC)",4 of 6
same,survivor count,"dose: 25.0 mg/kg/injection, schedule: Q01DX009 (ip), vehicle: saline",3 of 6
same,survivor count,"dose: 50.0 mg/kg/injection, schedule: Q01DX009 (ip), vehicle: saline",0 of 6
COc1ccc(/C(=N/N)c2ccccc2)cc1,survivor count,[3],0 of 6
N#CC1OC1c1cccnc1 (configuration not stated),survivor count,"dose: 50.0 mg/kg/injection, schedule: Q01DX005 (ip), vehicle: saline with Tween-80",0 of 6
same,survivor count,"dose: 100.0 mg/kg/injection, schedule: Q01DX005 (ip), vehicle: saline with Tween-80",0 of 6
same,survivor count,"dose: 200.0 mg/kg/injection, schedule: Q01DX005 (ip), vehicle: saline with Tween-80",0 of 6
NCCCN1CCCC1,survivor count,"dose: 200.0 mg/kg/injection, schedule: Q01DX005 (ip), vehicle: saline",0 of 5
N#Cc1c(C#N)c(O)c2c(N)cccc2c1O,survivor count,"dose: 400.0 mg/kg/injection, schedule: Q04DX002 (ip), vehicle: saline with Tween-80",0 of 6
